According to article PMC6673703, “14-3-3 signal adaptor and scaffold proteins mediate GPCR trafficking” (Scientific Reports, 2019):
No constants are given. Whether binding was seen depends on the method and setting. Binding can be weak; no strength is given.

Columns and labels:
[1] = target: T1, galanin receptor 1 (GALR1)-TEV (human) (UniProt P47211); assay: LinkLight assay (TEV protease on one partner cuts permuted luciferase on the other; luminescence end point); HEK293 cells stably expressing GPCR-TEV and 14-3-3ε-pLuc; serum-free DMEM, serial 1:3 dilution of ligand, 37 °C, 180 min unless otherwise specified; signal present without agonist and diminished by agonist (for MOR1 raised by naloxone and naltrexone)
T1 sequence: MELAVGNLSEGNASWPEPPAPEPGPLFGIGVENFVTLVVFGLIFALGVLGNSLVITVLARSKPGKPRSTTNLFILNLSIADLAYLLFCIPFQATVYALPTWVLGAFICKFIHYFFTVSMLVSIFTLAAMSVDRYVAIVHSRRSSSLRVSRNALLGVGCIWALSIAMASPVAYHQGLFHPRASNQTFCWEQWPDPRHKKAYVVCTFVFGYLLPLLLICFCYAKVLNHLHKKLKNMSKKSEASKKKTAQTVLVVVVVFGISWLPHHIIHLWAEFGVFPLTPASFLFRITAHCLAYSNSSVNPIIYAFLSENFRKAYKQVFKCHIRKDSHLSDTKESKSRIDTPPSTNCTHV

[2] = target: T2, sphingosine-1-phosphate receptor 4 (S1PR4)-TEV (human) (UniProt O95977); assay: LinkLight assay (TEV protease on one partner cuts permuted luciferase on the other; luminescence end point); HEK293 cells stably expressing GPCR-TEV and 14-3-3ε-pLuc; serum-free DMEM, serial 1:3 dilution of agonist, 37 °C, 240 min unless otherwise specified; agonist-induced signals
T2 sequence: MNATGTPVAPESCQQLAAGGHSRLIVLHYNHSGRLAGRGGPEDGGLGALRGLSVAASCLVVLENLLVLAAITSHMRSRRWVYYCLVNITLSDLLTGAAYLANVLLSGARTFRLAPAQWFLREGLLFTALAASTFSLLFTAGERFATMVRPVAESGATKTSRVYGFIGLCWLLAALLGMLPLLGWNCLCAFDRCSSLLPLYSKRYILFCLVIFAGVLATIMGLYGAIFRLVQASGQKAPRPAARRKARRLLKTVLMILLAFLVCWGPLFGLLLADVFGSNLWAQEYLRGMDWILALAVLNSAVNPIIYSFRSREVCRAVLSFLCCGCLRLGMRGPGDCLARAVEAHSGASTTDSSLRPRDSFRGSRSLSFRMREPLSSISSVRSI

[3] = target: T3, neuropeptide S receptor 1 (NPSR1)-TEV (human) (UniProt Q6W5P4); assay: as above
T3 sequence: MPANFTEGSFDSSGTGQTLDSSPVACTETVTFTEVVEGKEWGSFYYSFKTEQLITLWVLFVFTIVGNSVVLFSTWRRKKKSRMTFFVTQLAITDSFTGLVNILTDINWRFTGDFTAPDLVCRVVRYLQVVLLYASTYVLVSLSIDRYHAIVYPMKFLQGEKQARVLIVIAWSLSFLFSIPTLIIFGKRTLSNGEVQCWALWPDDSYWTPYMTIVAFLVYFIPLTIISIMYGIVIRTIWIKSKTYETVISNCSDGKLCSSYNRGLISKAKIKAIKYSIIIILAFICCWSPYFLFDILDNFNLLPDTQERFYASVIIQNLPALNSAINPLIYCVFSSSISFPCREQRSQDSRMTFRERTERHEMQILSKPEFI

[4] = target: T4, adenosine A2B (A2B) receptor-TEV (human) (UniProt P29275); assay: as above
T4 sequence: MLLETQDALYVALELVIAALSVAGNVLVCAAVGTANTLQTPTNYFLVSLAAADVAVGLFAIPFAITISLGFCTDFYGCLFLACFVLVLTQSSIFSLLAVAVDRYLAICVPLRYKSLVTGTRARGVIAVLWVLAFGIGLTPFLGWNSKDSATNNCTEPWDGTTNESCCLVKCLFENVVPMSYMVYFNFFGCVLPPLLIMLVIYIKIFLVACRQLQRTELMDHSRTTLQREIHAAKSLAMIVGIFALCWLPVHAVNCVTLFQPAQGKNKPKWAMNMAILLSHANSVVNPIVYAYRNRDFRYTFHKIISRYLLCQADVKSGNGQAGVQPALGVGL

Measured: binding

14-3-3ε-pLuc (14-3-3ε-permuted luciferase)
binds: all assays above
